# The whole screen tested about 300,000 compounds, of which about 5,400 (1.8%) were called active. Inconclusive means that the source gave no clear call. Such entries were picked first, then a sample of the others. Calls follow the shape of the full dose curve; tested in HEK293 cells. Where the call is inconclusive, the potency comes from a doubtful curve fit.
# Test: qHTS for inhibitors of binding or entry into cells for Marburg Virus
# Settings: Marburg virus pseudotyped entry inhibition, cell reporter; activity change, negative = inhibition: at 37.8 µM (top of the series) unless noted
# % is scaled to controls: 0 for no effect and ±100 for the full control effect; potency is read from the fitted curve at half-maximal effect.
SMILES,Potency,"activity change, negative = inhibition"
COc1ccc(S(=O)NC2CCCCC2)c(OC)c1C (stereo not drawn),"inconclusive: 2.51 µM [activator, partial curve, poor fit]",
CCOc1ccccc1NC(=O)Cn1ncc2ccc([N+](=O)[O-])cc21,"inconclusive: 1.26 µM [inhibitor, single point]",
COc1ccccc1NC(=O)c1coc(=O)c(Br)c1,,inactive: 1.19% [at 46.1 µM]
COc1ccc([C@H]2CN(c3ccc(OC)cc3)C(=O)[C@H]2CC(=O)Nc2ccc(Br)cc2)cc1,"inconclusive: 0.01 µM [inhibitor, full curve, poor fit]",
CSc1ccc(C(=O)c2[nH]c(=O)[nH]c2C)cc1,"inconclusive: 35.5 µM [activator, partial curve, poor fit]",
CCCCNC(=O)Nc1ccc(C2SCCS2)cc1,"inconclusive: 2 µM [activator, partial curve, poor fit]",
COC(=O)c1ccc(Nc2cc(C)nc3nc(C)nn23)cc1,"inconclusive: 6.51 µM [activator, partial curve, poor fit]",
O=C(NC1CCCCC1)c1ccc(CNc2ccccc2)o1,,inactive: 2.62%
CCOc1cc(/C=C(\C#N)C(=O)Nc2ccccn2)ccc1O,"inconclusive: 12.6 µM [activator, single point]",
O=C(NCc1ccc2c(c1)OCO2)Nc1ccc2ccccc2c1,,inactive: 3.66%
CCOc1ccc(CNC(=O)c2[nH]c3ccccc3c2Sc2ccc(C)cc2)cc1,"inconclusive: 39.8 µM [activator, partial curve, poor fit]",
CC(=O)N1c2ccccc2C(=O)C1N(C)c1ccc(C)cc1 (stereo not drawn),"inconclusive: 35.5 µM [activator, single point]",
CC(=O)Nc1ccc(NC(=O)C(C)Oc2ccc(C)nc2[N+](=O)[O-])cc1 (stereo not drawn),"inconclusive: 35.5 µM [inhibitor, single point]",
CCCC(=NCCc1c(C)[nH]c2ccccc12)C1=C(O)CC(c2ccccc2)CC1=O (stereo not drawn),"inconclusive: 12.6 µM [inhibitor, partial curve, poor fit]",
CC(C)CCNC(=O)CCn1nc(-c2ccccc2)ccc1=O,"inconclusive: 7.08 µM [activator, partial curve, poor fit]",
CCCC(=O)Nc1cccc(NC(=O)c2cccc([N+](=O)[O-])c2C)c1,"inconclusive: 0.112 µM [inhibitor, full curve, poor fit]",
CCCOc1ccc(/C=N/NC(=O)c2ccc3c(c2)OCO3)c(OCCC)c1,,inactive: -13.5% [at 46.1 µM]
O=C(COc1ccc(Cl)cc1Cl)NN1C(=O)C2C3C=CC(C3)C2C1=O (stereo not drawn),"inconclusive: 1.12 µM [activator, partial curve, poor fit]",
COc1cc(/C=N/N2CCN(C3c4ccccc4-c4ccccc43)CC2)cc(OC)c1OC,"inconclusive: 12.6 µM [inhibitor, single point]",
O=C(COc1ccc(Br)cc1)N(Cc1ccco1)C1CCS(=O)(=O)C1 (stereo not drawn),"inconclusive: 0.631 µM [activator, partial curve, poor fit]",
O=C(NCCCn1ccnc1)c1ccc(-c2cccc(Cl)c2Cl)o1,"inconclusive: 25.1 µM [inhibitor, single point]",

SMILES,Potency,"activity change, negative = inhibition"
Cc1ccc(C(=O)Cn2cccn2)cc1,"inconclusive: 3.16 µM [activator, single point]",
Cc1cc(/C=C2\Sc3ccccc3N2C)cc(C)[n+]1CC1CCCO1 (stereo not drawn),"inconclusive: 0.562 µM [inhibitor, full curve, poor fit]",
Cc1[nH]n(-c2ccccc2)c(=O)c1/C=N/N1C(=O)c2cccc3cccc(c23)C1=O,"inconclusive: 35.5 µM [inhibitor, single point]",
CCOc1ccc(C2C3=C(Nc4nc(N)[nH]c(=O)c42)c2ccccc2C3=O)cc1 (stereo not drawn),"inconclusive: 35.5 µM [activator, single point]",
O=C1CCCC(=O)C1=Cc1c[nH]c2ccccc12,"inconclusive: 0.199 µM [activator, full curve, poor fit]",
CCc1nccn1S(=O)(=O)c1ccc(C)c(C)c1,,inactive: 5.76% [at 46.1 µM]
Cc1sc2nc(CN3CCCCC3)nc(N3CCN(C(=O)c4ccco4)CC3)c2c1C,"inconclusive: 22.4 µM [inhibitor, partial curve, poor fit]",
Cc1cccc(Cn2c(SCc3ccc(C(=O)N4CCC(C)CC4)cc3)nc3ccncc32)c1,"inconclusive: 15.8 µM [inhibitor, single point]",
CC(Oc1ccccc1)C(=O)Nc1cccc(-c2nc3ccccc3[nH]2)c1 (stereo not drawn),"inconclusive: 35.5 µM [inhibitor, single point]",
CCN(CC)C(=O)COc1ccc2oc(-c3ccco3)cc(=O)c2c1,,inactive: 5.99%
C=CCN(c1ccccc1Cl)S(=O)(=O)c1cccc(C(=O)NCCc2ccc(OC)cc2)c1,"inconclusive: 12.6 µM [inhibitor, partial curve, poor fit]",
Cc1c(NS(=O)(=O)c2cc(C(=O)NCc3cccnc3)ccc2Cl)c(=O)n(-c2ccccc2)n1C,"inconclusive: 1.78 µM [activator, partial curve, poor fit]",
Cc1c(C(=O)N/N=C/c2cccs2)nnn1-c1nonc1N,"inconclusive: 5.62 µM [inhibitor, single point]",
CC(C)c1nnc(NC(=O)CCC(=O)N2CCC(Cc3ccccc3)CC2)s1,,inactive: 0.921% [at 46.1 µM]
CC(C)CN(C(=O)COC(=O)CCCc1c[nH]c2ccccc12)c1c(N)n(Cc2ccccc2)c(=O)[nH]c1=O,"inconclusive: 35.5 µM [inhibitor, single point]",
CCn1c(Cc2c(C)[nH]c3ccccc23)nnc1SCC(=O)NCc1ccco1,"inconclusive: 0.1 µM [inhibitor, full curve, poor fit]",
COc1cccc(/C(O)=C2/C(=O)C(=O)N(c3ccccn3)C2c2ccc(OC)c(OC)c2)c1 (stereo not drawn),"inconclusive: 0.461 µM [inhibitor, full curve, poor fit]",
CC1=CC(C)[C@H](/C=N/n2c(=O)[nH]c3c([nH]c4ccc(C)cc43)c2=O)C(C)C1 (stereo partly drawn),"inconclusive: 5.62 µM [inhibitor, full curve]",
Cc1ccc(S(=O)(=O)CNC(=S)c2ccc3ccccc3c2)cc1,,inactive: 16.9%
CCS(=O)c1ccccc1C(=O)O (stereo not drawn),"inconclusive: 29.1 µM [activator, single point]",
CC(C)Oc1ccc(CNC(=O)Nc2ccc3c(c2)N(C)C(=O)c2ccccc2S3)cc1,"inconclusive: 3.16 µM [activator, partial curve, poor fit]",

SMILES,Potency,"activity change, negative = inhibition"
COc1cc(NC(=O)CN2C3CCC2CC(O)(c2cccnc2)C3)cc(OC)c1 (stereo not drawn),"inconclusive: 1.26 µM [inhibitor, partial curve, poor fit]",
CCCc1cc(=O)oc2cc(C)cc(OC(C)C(=O)NCCN3CCOCC3)c12 (stereo not drawn),,inactive: 16.9% [at 46.1 µM]
COc1cc(/C=C2\CC/C(=C\c3ccc(OCCO)c(OC)c3)C2=O)ccc1OCCO,"inconclusive: 17.8 µM [inhibitor, single point]",
CCN(CC)CCN(C(=O)c1ccc(S(=O)(=O)N2CCCCC2)cc1)c1nc2cc3c(cc2s1)OCO3,"inconclusive: 5.62 µM [inhibitor, single point]",
CC1Oc2ccccc2N(CC(=O)Nc2ccccc2F)C1=O (stereo not drawn),"inconclusive: 2.51 µM [inhibitor, single point]",
c1cncc(-c2noc(C34CC5CC(CC(C5)C3)C4)n2)c1,,inactive: 14.4%
Cc1nc2ccccc2c(=O)n1/N=C/c1cc(Br)ccc1O,"inconclusive: 2.24 µM [inhibitor, partial curve, poor fit]",
CCCCNC(=O)NNC(=O)COc1cc(C)cc(C)c1,"inconclusive: 1.26 µM [inhibitor, single point]",
COCCNC(=O)COc1ccc(Br)cc1Cl,,inactive: 16.7%
O=C(NCC1(N2CCCCC2)CCCCC1)c1cccc(NS(=O)(=O)c2ccccc2)c1,"inconclusive: 7.94 µM [inhibitor, partial curve, poor fit]",
c1ccc(-n2c(SCc3ccncc3)nnc2-c2ccco2)cc1,"inconclusive: 35.5 µM [activator, single point]",
COC(=O)[C@@H]1CC[C@H](C)[C@@H](c2ccc(C)cc2)N1C(=O)c1ccc(/C=N/OCC[C@@H]2C=C[C@H](OC(C)=O)[C@@H](COC(C)=O)O2)cc1,,inactive: 3.99%
O=C(Nc1ccc(N2C(=O)CCC2=O)cc1Cl)c1cccs1,,inactive: -16.4% [at 46.1 µM]
O=C(OCC(=O)N1CCCc2ccccc21)c1ccccc1OC(F)F,,inactive: 4.7% [at 46.1 µM]
Oc1ccccc1/C=N/Nc1nc2ccccc2o1,"inconclusive: 35.5 µM [inhibitor, single point]",
CCn1c(Cn2nnc(-c3ccccc3)n2)nnc1SCc1ccc(Cl)c(Cl)c1,"inconclusive: 3.55 µM [inhibitor, partial curve, poor fit]",
C=CCOc1ccccc1CN1CCC(Cc2ccccc2)CC1,"inconclusive: 20 µM [inhibitor, partial curve, poor fit]",
c1ccc(Cn2ncc3c(N4CCCCC4)ncnc32)cc1,,inactive: 5.98%
CC(=O)Nc1ccc(NC2=Nc3ccccc3N3C2=Nc2c(c(C)nn2-c2ccccc2)C3c2ccccc2)cc1 (stereo not drawn),"inconclusive: 3.16 µM [inhibitor, single point]",
CCc1ccc(C(=O)COC(=O)c2cc([N+](=O)[O-])ccc2NCCO)cc1,"inconclusive: 35.5 µM [inhibitor, single point]",
C=CCNC(=O)c1ccccc1NC(=O)c1ccc(Cl)c(S(=O)(=O)Nc2cc(C)ccc2C)c1,"inconclusive: 16.4 µM [inhibitor, partial curve, poor fit]",

# 2 entries from above in another layout.
SMILES	Potency	activity change, negative = inhibition
CCOc1ccccc1NC(=O)Cn1ncc2ccc([N+](=O)[O-])cc21	inconclusive: 1.26 µM [inhibitor, single point]	
COc1ccccc1NC(=O)c1coc(=O)c(Br)c1		inactive: 1.19% [at 46.1 µM]
